PMC4879868
No constants are given. Whether binding was seen depends on the method and setting. Binding seen in cells or lysates may run through a third protein. Binding calls can cover weak binding; strength is not graded here.

Columns and labels:
[1] = molecular target: T1, BirA-SH3TC2 (UniProt Q8TF17); test: co-IP; lysates of RPE cells stably expressing BirA alone or BirA-SH3TC2 (20 mM HEPES pH 7.4, 150 mM NaCl, 1 mM EDTA, 1% Ipegal); anti-SH3TC2 antibody (2058) overnight at 4 °C, protein A Sepharose; immunoblot
T1 sequence: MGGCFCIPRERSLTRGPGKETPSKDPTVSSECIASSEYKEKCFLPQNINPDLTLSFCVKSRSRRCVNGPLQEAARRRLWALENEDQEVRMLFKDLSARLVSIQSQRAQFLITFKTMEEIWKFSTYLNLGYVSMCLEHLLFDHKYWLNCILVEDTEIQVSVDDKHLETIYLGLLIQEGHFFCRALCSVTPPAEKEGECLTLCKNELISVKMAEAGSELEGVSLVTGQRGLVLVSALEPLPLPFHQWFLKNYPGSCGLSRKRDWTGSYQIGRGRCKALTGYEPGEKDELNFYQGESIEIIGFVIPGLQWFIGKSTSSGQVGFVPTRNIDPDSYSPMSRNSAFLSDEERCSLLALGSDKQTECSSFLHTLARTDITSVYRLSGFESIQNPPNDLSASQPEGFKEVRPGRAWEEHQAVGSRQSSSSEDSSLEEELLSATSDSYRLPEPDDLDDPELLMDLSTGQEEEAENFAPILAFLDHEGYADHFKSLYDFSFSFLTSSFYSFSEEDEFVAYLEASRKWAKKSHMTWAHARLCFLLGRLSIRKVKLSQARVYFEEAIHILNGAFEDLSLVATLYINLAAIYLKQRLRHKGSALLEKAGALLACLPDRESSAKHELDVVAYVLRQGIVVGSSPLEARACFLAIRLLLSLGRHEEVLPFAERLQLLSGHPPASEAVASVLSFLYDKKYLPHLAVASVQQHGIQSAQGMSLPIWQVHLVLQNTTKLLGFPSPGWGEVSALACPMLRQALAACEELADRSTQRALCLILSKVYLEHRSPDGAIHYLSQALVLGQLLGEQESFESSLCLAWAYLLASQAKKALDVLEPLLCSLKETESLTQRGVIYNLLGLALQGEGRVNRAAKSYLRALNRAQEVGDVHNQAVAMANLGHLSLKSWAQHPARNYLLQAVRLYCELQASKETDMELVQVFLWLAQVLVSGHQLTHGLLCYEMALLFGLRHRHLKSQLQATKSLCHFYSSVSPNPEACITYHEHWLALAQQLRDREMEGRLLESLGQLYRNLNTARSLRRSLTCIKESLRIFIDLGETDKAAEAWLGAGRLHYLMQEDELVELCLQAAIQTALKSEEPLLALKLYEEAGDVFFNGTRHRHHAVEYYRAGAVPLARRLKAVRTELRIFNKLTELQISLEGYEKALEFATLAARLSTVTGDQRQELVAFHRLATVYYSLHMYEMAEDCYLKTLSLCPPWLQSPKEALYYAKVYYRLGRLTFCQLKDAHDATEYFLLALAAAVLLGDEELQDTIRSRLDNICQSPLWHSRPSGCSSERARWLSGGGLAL

[2] = molecular target: T1, BirA-SH3TC2; test: proximity ligation; Duolink PLA on RPE cells stably expressing SH3TC2, fixed with 4% PFA; pairs of primary antibodies (anti-SH3TC2, anti-integrin-α6, anti-LAMP1)

With integrin-α6 (receptor) the binding [1] was “binds” and the binding [2] was “binds”.
